Data reported in the supplement of paper PMC10849652.
The other results are listed elsewhere or left out.

Sequences of proteins named here, by UniProt entry; tags and fusion partners are left off. A change or cut given only in a name is not applied to a line headed by its entry.
UniProt Q14247: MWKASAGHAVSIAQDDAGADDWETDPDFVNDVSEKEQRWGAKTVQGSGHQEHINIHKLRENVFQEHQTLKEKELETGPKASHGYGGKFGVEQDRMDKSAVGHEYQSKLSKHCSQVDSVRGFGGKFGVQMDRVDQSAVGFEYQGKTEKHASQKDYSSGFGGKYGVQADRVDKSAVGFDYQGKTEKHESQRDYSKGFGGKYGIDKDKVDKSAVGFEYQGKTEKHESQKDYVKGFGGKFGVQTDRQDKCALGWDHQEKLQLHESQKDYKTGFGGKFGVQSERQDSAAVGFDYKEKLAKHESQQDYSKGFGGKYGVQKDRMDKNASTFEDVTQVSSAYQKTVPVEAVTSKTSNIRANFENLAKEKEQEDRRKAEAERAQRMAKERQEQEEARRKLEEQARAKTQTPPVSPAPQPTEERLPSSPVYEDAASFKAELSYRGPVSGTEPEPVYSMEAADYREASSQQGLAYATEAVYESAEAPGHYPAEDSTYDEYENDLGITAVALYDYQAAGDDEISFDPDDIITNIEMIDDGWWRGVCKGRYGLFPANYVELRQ
UniProt Q9GZU7: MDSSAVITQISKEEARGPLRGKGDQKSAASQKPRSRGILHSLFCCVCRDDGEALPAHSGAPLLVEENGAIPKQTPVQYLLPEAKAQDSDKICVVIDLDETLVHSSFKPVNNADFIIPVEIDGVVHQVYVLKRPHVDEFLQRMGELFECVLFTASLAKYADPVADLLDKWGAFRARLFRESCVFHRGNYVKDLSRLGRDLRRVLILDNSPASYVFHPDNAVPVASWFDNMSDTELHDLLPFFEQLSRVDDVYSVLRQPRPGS
UniProt P0C2W7: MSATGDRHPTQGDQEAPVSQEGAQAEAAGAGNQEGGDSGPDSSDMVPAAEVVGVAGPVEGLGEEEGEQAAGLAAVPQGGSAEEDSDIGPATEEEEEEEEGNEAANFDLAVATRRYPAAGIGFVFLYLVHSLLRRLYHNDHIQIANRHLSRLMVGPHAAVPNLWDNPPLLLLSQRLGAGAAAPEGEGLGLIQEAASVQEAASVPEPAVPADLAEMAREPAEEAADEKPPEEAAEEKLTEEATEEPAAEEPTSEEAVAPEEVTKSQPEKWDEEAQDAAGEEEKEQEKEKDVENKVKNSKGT
UniProt P0DMU9: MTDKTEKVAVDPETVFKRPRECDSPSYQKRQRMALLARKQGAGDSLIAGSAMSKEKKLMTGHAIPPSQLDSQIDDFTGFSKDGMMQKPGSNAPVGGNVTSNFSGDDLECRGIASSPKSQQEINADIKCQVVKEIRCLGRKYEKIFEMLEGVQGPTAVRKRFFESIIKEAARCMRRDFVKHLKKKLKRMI
UniProt Q96C57: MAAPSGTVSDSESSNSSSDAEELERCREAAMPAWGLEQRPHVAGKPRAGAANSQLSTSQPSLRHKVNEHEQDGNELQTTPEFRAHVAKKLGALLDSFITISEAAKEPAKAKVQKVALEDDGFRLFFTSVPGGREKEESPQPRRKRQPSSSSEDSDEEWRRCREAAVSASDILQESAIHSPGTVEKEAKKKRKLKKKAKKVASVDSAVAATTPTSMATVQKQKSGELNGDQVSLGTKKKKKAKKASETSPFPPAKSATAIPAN
UniProt O95715: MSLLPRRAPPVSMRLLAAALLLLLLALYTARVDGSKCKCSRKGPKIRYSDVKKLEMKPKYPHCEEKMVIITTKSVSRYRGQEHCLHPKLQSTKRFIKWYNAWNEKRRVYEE
UniProt Q6UUV7: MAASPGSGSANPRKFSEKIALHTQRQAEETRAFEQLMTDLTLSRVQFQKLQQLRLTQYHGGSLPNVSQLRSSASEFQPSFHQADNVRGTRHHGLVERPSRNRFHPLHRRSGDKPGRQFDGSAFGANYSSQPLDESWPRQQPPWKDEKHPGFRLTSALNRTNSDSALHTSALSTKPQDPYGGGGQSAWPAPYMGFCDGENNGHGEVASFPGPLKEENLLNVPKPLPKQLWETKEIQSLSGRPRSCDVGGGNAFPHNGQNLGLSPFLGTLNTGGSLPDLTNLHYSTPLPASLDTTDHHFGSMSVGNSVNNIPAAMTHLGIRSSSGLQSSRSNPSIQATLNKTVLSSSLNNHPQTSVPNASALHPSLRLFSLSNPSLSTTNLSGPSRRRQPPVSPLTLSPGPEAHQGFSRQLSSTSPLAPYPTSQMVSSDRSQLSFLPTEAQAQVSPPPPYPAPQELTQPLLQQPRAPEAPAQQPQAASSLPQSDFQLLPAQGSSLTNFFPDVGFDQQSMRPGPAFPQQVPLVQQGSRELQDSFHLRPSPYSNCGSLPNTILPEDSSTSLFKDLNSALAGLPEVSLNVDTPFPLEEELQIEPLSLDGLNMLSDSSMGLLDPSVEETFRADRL
UniProt Q53ET0: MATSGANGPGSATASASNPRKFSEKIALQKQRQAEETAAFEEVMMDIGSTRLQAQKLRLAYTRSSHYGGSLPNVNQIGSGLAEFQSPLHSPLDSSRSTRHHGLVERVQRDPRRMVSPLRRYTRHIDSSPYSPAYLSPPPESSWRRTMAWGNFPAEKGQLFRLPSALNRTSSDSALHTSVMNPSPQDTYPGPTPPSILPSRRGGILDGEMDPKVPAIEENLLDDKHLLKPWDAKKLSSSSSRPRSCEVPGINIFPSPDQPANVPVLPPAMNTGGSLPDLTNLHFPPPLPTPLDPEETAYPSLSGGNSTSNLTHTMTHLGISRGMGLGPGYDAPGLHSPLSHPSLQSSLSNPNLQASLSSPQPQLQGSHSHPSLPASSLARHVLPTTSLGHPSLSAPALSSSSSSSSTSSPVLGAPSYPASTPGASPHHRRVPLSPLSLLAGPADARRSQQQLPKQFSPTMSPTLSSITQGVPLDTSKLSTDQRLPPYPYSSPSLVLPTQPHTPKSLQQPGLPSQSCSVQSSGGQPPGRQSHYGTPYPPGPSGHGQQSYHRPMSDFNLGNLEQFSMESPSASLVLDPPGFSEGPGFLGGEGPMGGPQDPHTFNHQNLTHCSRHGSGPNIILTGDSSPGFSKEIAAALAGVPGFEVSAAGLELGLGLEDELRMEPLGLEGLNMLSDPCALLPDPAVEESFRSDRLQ
UniProt P78560: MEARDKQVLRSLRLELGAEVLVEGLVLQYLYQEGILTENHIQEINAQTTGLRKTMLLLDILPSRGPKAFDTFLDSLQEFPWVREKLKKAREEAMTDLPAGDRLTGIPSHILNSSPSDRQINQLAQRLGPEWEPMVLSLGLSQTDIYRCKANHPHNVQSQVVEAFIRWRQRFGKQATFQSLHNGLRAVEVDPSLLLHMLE
UniProt Q7L576: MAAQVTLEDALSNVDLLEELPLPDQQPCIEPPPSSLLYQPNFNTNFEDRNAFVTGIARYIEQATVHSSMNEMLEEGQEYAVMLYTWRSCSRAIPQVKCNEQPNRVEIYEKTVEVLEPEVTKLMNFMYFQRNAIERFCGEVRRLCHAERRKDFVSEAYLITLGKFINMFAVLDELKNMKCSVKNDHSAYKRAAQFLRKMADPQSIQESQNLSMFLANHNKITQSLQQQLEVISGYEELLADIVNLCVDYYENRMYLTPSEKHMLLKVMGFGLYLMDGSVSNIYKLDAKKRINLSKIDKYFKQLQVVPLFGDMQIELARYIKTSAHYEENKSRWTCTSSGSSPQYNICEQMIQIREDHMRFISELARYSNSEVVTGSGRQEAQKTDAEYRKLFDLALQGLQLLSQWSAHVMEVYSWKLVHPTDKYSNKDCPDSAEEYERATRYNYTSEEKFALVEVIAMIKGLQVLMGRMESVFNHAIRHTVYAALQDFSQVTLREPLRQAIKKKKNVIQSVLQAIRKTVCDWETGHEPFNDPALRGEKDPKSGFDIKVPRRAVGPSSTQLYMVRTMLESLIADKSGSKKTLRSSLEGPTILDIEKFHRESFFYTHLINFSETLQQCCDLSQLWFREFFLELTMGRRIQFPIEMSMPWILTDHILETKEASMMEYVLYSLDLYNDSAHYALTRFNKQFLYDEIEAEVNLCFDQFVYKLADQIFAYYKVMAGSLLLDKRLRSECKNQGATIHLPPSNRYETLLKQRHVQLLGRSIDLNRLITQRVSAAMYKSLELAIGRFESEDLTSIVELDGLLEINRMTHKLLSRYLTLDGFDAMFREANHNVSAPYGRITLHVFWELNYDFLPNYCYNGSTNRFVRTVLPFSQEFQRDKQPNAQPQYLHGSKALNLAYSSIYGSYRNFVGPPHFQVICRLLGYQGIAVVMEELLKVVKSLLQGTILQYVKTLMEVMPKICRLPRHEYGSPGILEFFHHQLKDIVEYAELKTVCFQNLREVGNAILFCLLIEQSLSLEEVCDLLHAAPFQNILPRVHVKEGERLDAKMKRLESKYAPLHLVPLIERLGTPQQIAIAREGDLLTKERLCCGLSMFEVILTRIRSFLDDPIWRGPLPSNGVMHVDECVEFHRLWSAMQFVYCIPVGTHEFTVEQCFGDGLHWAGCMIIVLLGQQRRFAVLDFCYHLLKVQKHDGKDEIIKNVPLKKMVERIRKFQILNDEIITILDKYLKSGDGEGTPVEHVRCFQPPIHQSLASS
UniProt P55060: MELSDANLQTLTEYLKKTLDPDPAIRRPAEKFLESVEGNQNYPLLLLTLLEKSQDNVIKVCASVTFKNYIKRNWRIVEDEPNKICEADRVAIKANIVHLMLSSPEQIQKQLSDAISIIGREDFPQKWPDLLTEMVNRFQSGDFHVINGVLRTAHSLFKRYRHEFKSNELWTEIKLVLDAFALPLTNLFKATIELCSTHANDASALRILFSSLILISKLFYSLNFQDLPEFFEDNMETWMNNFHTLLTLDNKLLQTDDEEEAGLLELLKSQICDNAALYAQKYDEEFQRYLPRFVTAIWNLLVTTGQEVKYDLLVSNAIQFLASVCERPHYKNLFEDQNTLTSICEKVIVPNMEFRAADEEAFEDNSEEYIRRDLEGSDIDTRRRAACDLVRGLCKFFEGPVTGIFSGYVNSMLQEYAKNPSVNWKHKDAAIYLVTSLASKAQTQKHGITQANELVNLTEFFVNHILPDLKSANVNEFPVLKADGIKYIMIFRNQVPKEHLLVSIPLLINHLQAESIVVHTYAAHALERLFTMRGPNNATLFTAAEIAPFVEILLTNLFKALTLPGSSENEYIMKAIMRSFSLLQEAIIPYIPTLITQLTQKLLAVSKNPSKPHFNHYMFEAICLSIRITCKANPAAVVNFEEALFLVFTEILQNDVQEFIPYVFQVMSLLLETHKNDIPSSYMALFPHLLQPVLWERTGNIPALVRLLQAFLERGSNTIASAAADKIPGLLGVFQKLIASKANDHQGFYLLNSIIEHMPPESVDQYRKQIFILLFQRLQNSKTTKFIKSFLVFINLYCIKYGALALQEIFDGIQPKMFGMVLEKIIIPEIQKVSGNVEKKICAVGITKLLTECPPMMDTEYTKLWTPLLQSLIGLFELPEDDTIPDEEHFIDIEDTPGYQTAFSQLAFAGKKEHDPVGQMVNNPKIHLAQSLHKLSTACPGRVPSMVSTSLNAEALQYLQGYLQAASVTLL
UniProt Q9Y6M4: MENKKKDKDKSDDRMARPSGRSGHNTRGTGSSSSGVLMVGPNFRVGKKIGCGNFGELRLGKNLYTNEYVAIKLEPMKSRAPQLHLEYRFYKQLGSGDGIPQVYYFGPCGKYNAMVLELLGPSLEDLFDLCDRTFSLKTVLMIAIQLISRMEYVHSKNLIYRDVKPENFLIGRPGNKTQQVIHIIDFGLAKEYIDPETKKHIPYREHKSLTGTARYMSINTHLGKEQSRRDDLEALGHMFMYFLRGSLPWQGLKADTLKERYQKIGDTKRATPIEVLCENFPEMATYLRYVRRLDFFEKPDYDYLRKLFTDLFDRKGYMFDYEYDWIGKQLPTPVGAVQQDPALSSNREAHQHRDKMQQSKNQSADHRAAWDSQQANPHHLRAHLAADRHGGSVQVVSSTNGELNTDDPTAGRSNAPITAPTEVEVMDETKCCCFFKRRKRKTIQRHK
UniProt O75718: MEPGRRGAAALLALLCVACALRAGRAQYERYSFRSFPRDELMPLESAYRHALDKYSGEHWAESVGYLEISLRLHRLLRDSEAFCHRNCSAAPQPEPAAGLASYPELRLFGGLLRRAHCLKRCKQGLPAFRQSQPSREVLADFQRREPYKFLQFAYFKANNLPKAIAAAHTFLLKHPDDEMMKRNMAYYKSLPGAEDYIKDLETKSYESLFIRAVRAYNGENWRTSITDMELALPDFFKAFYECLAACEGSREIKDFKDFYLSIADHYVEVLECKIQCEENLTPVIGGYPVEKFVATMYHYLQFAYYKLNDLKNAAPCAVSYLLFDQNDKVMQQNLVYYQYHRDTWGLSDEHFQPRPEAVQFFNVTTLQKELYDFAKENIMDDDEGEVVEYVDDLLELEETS
UniProt P07711: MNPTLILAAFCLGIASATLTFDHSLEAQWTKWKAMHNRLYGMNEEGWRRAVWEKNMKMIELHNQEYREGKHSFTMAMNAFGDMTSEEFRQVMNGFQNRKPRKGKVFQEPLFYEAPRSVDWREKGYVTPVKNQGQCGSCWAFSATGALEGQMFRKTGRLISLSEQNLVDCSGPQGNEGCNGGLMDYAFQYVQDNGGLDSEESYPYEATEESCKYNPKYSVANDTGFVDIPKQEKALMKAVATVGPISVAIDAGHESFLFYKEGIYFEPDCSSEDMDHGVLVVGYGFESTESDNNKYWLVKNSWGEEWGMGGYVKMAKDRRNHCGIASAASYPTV

What was measured:
Assay in all cases: log2 fold change, soluble protein after heating vs DMSO (PISA); higher = thermal stabilisation; K562 lysate, 10 uM; active = over 0.2 and 3.5 SD of the protein, either way, in both replicates (recomputed)
[1] = compound: C1=CC=C(C=C1)[C@H](COC2=CC3=C(C=C2)NC(=O)N3)NC(=O)C4=CC=CN(C4=O)CC5=CC(=C(C=C5)F)F
How it was run: (§1)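 Following dounce homogenisation of K562 pellets in PBS pH 7.4 with 1 mM MgCl2, crude extract at 1 mg/mL protein was incubated for 30 min with 10 μM compound. Aliquots were then heated for 3 min over 48°C-58°C and pooled, NP-40 was added to 0.5% at 4°C, and soluble protein was recovered as the supernatant at 21,000xg for 90 min. Channel-sum-equalised TMTpro 16plex LC-MS/MS quantified this protein. Each value, from duplicates, is a log-two fold change in thermal stability relative to solvent controls.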

[2] = compound: CC1=C(SC2=C1C(=N[C@H](C3=NN=C(N32)C)CC(=O)N)C4=CC=C(C=C4)Cl)C
How it was run: as §1

[3] = compound: CC1=C2C(=CC=C1)N=C(N(C2=O)C3=CC=CC=C3C)CN4C=NC5=C(N=CN=C54)N
How it was run: as §1

[4] = compound: Cc1sc2c(c1C)C(c1ccc(Cl)cc1)=N[C@@H](CC(=O)OC(C)(C)C)c1nnc(C)n1-2
How it was run: as §1

[5] = compound: c1ccc([C@@H]2C[C@H]2NC2CCNCC2)cc1
How it was run: as §1

Measured: log2 fold change

CRAT (UniProt P43155)
inactive: [1] -0.043 | [2] 0.057 | [3] 0.064 | [4] 0.007

CTTN (UniProt Q14247)
inactive: [1] 0.097 | [2] -0.044 | [3] -0.013 | [4] 0.001 | [5] 0.071

CUTA isoform 2 (UniProt O60888)
inactive: [1] 0.086 | [2] 0.024 | [3] -0.016 | [4] -0.017 | [5] -0.091

CTDSP1 isoform 3 (UniProt Q9GZU7)
inactive: [1] 0.033 | [2] -0.036

CT47B1 (UniProt P0C2W7)
inactive: [1] -0.2 | [2] 0 | [3] -0.14 | [4] -0.073

CT45A10 (UniProt P0DMU9)
inactive: [1] 0.019 | [2] 0.01 | [3] -0.012 | [4] -0.004 | [5] 0.064

CTSC (UniProt P53634)
inactive: [1] -0.042 | [2] 0.023 | [3] 0.014 | [4] -0.06 | [5] -0.065

CUSTOS (UniProt Q96C57)
inactive: [1] 0.035 | [2] -0.043 | [3] 0.01 | [4] 0.071 | [5] -0.008

CXCL14 (UniProt O95715)
inactive: [1] 0.002 | [2] -0.088 | [3] 0.128

CSNK1G2 (UniProt P78368)
inactive: [1] 0.003 | [2] -0.051 | [3] -0.051 | [4] -0.1 | [5] -0.179

CTCFL isoform 7 (UniProt Q8NI51)
inactive: [1] 0.002 | [2] 0.049

CTSZ (UniProt Q9UBR2)
inactive: [1] 0.026 | [2] -0.002 | [3] 0.019 | [4] -0.032 | [5] -0.016

CRTC3 (UniProt Q6UUV7)
inactive: [1] 0.046 | [2] 0.146 | [3] -0.1 | [4] 0.063

CREB3L2 (UniProt Q70SY1)
inactive: [1] -0.02 | [2] 0.015 | [3] 0.14 | [4] 0.062 | [5] -0.098

CS (UniProt O75390)
inactive: [1] 0.003 | [2] 0.016 | [3] 0.033 | [4] 0.029 | [5] 0.03

CTIF isoform 2 (UniProt O43310)
inactive: [1] 0.041 | [2] 0.023 | [3] 0.012 | [4] 0.081 | [5] -0.053

CRTC2 (UniProt Q53ET0)
inactive: [1] -0.012 | [2] -0.033 | [3] -0.091 | [4] 0.014 | [5] 0.015

CTSB (UniProt P07858)
inactive: [1] 0.006 | [2] 0.01 | [3] 0.012 | [4] 0.002 | [5] -0.016

CRBN (UniProt Q96SW2)
inactive: [1] 0.003 | [2] 0.015 | [3] -0.022 | [4] 0.007 | [5] -0.105

CUL7 isoform 2 (UniProt Q14999)
inactive: [1] 0.003 | [2] -0.132 | [3] 0.014 | [4] 0.029 | [5] 0.065

CRADD (UniProt P78560)
inactive: [1] 0.066 | [2] -0.016 | [3] 0.116 | [4] -0.006 | [5] 0.07

Pulled one by one from the list above, five records:
CTSB (UniProt P07858)
inactive: [1] 0.006 | [2] 0.01 | [3] 0.012 | [4] 0.002 | [5] -0.016

CS (UniProt O75390)
inactive: [1] 0.003 | [2] 0.016 | [3] 0.033 | [4] 0.029 | [5] 0.03

CRTC2 (UniProt Q53ET0)
inactive: [1] -0.012 | [2] -0.033 | [3] -0.091 | [4] 0.014 | [5] 0.015

CTIF isoform 2 (UniProt O43310)
inactive: [1] 0.041 | [2] 0.023 | [3] 0.012 | [4] 0.081 | [5] -0.053

CRBN (UniProt Q96SW2)
inactive: [1] 0.003 | [2] 0.015 | [3] -0.022 | [4] 0.007 | [5] -0.105

Following part:

CREBBP (UniProt Q92793)
inactive: [1] -0.046 | [2] -0.018 | [3] 0.011 | [4] 0.024 | [5] 0.002

CUL5 (UniProt Q93034)
inactive: [1] 0.001 | [2] 0.011 | [3] 0.003 | [4] 0.022 | [5] -0.02

CUTC (UniProt Q9NTM9)
inactive: [1] 0.018 | [2] 0.057 | [3] 0.012 | [4] -0.006 | [5] -0.042

CYFIP1 (UniProt Q7L576)
inactive: [1] -0.011 | [2] 0.004 | [3] 0.04 | [4] 0.002 | [5] 0

CTTN isoform 2 (UniProt Q14247)
inactive: [1] 0.025 | [2] 0.005 | [3] -0.016 | [4] -0.018 | [5] 0.019

CRKL (UniProt P46109)
inactive: [1] 0.022 | [2] 0.006 | [3] -0.001 | [4] -0.031 | [5] -0.055

CSNK1A1 (UniProt P48729)
inactive: [1] -0.027 | [2] 0.007 | [3] -0.033 | [4] 0.025 | [5] -0.044

CWC15 (UniProt Q9P013)
inactive: [1] 0.011 | [2] 0.052 | [3] -0.061 | [4] -0.039 | [5] -0.008

CST3 (UniProt P01034)
inactive: [1] -0.022 | [2] 0.039 | [3] 0.029 | [4] -0.001 | [5] 0.056

CSNK2A1 (UniProt P68400)
inactive: [1] -0.004 | [2] 0.012 | [3] -0.119 | [4] 0.034 | [5] 0.005

CREB1 (UniProt P16220)
inactive: [1] -0.019 | [2] -0.023 | [3] 0.011 | [4] 0.02 | [5] 0.082

CUL1 (UniProt Q13616)
inactive: [1] 0.017 | [2] -0.027 | [3] -0.007 | [4] 0.016 | [5] -0.001

CT47A1 (UniProt Q5JQC4)
inactive: [1] -0.033 | [2] 0.071 | [3] -0.131 | [4] 0.007 | [5] 0.016

CSNK2A2 (UniProt P19784)
inactive: [1] -0.02 | [2] -0.033 | [3] -0.213 | [4] 0.038 | [5] 0.015

CYHR1 (UniProt E9PJD7)
inactive: [1] -0.031 | [2] 0.063 | [3] -0.104 | [4] 0.021 | [5] 0.015

CTCF (UniProt P49711)
inactive: [1] 0.034 | [2] -0.033 | [3] 0.073 | [4] -0.047 | [5] 0.098

CTH (UniProt P32929)
inactive: [1] 0.037 | [2] 0.033 | [3] 0 | [4] -0.008 | [5] 0

CYB5R2 (UniProt Q6BCY4)
inactive: [1] 0.001 | [2] 0.003 | [3] 0.163 | [4] -0.063 | [5] -0.063

CUL2 isoform 2 (UniProt Q13617)
inactive: [1] 0.004 | [2] 0.008 | [3] 0.014 | [4] 0.036 | [5] 0.014

CSE1L (UniProt P55060)
inactive: [1] -0.033 | [2] 0.034 | [3] 0.022 | [4] -0.001 | [5] 0.028

CROCC (UniProt Q5TZA2)
inactive: [1] -0.085 | [2] 0.09 | [3] 0.085 | [4] -0.035 | [5] 0.004

CSNK1G3 (UniProt Q9Y6M4)
inactive: [1] -0.041 | [2] 0.017 | [3] -0.013 | [4] 0.006 | [5] -0.03

CSNK1D (UniProt P48730)
inactive: [1] -0.027 | [2] 0.014 | [3] -0.127 | [4] -0.026 | [5] 0.025

CSDE1 isoform 4 (UniProt O75534)
inactive: [1] -0.012 | [2] -0.009 | [3] -0.017 | [4] 0.046 | [5] 0.04

CRTAP (UniProt O75718)
inactive: [1] 0.032 | [2] -0.045 | [3] -0.009 | [4] 0.045 | [5] 0.084

CTPS2 (UniProt Q9NRF8)
inactive: [1] -0.001 | [2] -0.009 | [3] -0.008 | [4] 0.004 | [5] 0

CYB5R4 (UniProt Q7L1T6)
inactive: [1] -0.056 | [2] -0.001 | [3] 0.046 | [4] -0.086 | [5] -0.01

CSTF2 (UniProt P33240)
inactive: [1] -0.027 | [2] 0.021 | [3] 0.055 | [4] -0.032 | [5] 0.01

CTSL (UniProt P07711)
inactive: [1] -0.004 | [2] -0.016 | [3] -0.024 | [4] -0.007 | [5] -0.026

CXXC1 isoform 2 (UniProt Q9P0U4)
inactive: [1] 0.006 | [2] 0.07 | [3] 0.032 | [4] -0.173 | [5] 0.029

CWC22 (UniProt Q9HCG8)
inactive: [1] -0.033 | [2] 0.028 | [3] 0.034 | [4] 0.079 | [5] 0.237

CTNNBL1 (UniProt Q8WYA6)
inactive: [1] -0.003 | [2] 0 | [3] 0.004 | [4] -0.087 | [5] 0.073

CWF19L1 (UniProt Q69YN2)
inactive: [1] 0.018 | [2] 0.002 | [3] 0.011 | [4] 0.001 | [5] 0.014

CXorf40B (UniProt Q96DE9)
inactive: [1] -0.151 | [2] -0.183 | [3] 0.168 | [4] 0.017 | [5] 0.051
